From PMC5587741
Results are given in words; binding and its absence hold for the method and conditions named. In cells and extracts the contact can be indirect. Some entries that bind do so weakly or less than the wild type.

By UniProt entry, the sequences of proteins in these tests, tags left out. Residues count along the entry.
UniProt Q86T13, residues 22-490: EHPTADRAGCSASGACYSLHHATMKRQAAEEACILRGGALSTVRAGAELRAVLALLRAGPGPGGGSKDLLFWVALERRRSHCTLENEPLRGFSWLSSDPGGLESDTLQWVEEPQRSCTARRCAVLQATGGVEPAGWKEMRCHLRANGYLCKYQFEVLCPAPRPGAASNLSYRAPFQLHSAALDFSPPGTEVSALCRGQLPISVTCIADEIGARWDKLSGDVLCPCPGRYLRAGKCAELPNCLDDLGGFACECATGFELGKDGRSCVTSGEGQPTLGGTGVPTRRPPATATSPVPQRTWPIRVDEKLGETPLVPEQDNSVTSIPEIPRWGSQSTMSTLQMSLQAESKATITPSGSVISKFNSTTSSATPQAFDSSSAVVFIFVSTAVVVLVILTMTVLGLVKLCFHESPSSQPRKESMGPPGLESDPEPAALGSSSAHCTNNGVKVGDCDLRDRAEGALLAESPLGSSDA
UniProt P0DMV8: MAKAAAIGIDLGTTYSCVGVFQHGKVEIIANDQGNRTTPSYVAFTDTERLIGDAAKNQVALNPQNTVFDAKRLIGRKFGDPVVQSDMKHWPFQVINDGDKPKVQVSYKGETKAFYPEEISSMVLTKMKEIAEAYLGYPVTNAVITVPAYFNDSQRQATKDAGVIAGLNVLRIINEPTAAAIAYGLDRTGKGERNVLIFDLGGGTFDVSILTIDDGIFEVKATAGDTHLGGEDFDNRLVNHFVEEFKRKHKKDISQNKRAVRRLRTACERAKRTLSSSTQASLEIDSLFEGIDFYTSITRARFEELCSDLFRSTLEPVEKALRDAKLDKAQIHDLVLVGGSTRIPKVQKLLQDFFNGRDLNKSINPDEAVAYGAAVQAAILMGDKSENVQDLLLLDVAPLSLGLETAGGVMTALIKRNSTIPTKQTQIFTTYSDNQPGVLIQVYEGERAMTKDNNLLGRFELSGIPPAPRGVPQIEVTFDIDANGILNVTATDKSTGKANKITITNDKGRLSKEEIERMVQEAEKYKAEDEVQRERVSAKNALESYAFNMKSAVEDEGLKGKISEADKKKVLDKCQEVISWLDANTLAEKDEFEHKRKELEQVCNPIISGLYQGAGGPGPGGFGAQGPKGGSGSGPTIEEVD

Biological target: CLEC14a (C-type lectin domain family 14 member), endogenous in HUVECs (human (endogenous in HUVEC)) (UniProt Q86T13)
Test: co-IP; HUVEC extract (1% TX-100 in PBS, 1 mg protein) incubated overnight at 4 °C with sheep anti-CLEC14a or control antibody on protein G resin; blot with anti-HSP70-1A

“heat shock protein 70-1A (HSP70-1A), endogenous in HUVECs (from UniProt P0DMV8 1-641)” was tested, and the binding was “binds”.
